Data taken from patent publication US20250163057A1, “DCN-1 MODULATING COMPOUNDS AND METHODS OF USE THEREOF” (Cellarity, Inc., priority 2023, published 2025).
Structures were worked out from names or drawings and are uncertain.

Chains of the proteins cited; added tags and fusions are not shown. Residues count along the entry.
UniProt Q96GG9, whole entry: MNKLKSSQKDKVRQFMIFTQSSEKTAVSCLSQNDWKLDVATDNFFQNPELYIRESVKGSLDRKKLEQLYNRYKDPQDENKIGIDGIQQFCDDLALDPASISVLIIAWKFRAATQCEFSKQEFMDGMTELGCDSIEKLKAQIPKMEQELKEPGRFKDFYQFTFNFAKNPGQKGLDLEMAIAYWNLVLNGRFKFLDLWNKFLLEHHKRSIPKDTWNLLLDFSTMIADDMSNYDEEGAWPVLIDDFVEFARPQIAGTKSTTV
UniProt Q96GG9, 60-248 limits assumed: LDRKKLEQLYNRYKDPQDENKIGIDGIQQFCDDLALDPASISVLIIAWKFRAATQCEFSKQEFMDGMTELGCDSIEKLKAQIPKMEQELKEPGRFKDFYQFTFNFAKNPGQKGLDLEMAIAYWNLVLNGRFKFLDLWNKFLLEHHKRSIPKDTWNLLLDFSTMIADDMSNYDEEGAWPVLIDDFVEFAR

What was measured:
[1] = biological target: DCN1 protein (Homo sapiens (Human), UniProt Q96GG9); assay: Intact Protein MS Analysis with the RapidFire-TOF System (covalent adduct formation); details: MS Emax; 400 nM DCN1, 3 hours at room temperature
[2] = biological target: DCN1 (DCUND1) protein PONY domain (Homo sapiens (Human), UniProt Q96GG9); assay: TR-FRET assay, DCN1 binding with FAM-labeled probe; details: read-out: TR FRET IC50 24 hr; 24 hr after treatment with compound

## CCN1C(=O)[C@@H](NC(=O)c2cccc(C(F)(F)F)c2)[C@@H](c2ccc(F)cc2)c2c(CN(C)C(=O)/C=C/CN3CCOCC3)nn(-c3ccccc3)c21 (relative stereo)
[1]
  % Adduct Formation: + (MS Emax % adduct formation greater than or equal to 0.0 and less than or equal to 30.0)
[2]
  IC50: 1000 to 3000 nM
